# Data taken from PubChem BioAssay AID504834 (National Center for Advancing Translational Sciences (NCATS), 2011).
# The campaign covered roughly 320,000 compounds. About 22,000 (6.9%) were called active. Inconclusive means that the source gave no clear call. Such entries were picked first, then a sample of the others. Calls come from the whole dose curve; as a rule, active = well fitted inhibition curve with a large enough effect; inconclusive = small, poorly fitted or top-dose-only effect, or another doubt; inactive = no such curve, though single readings can be large or run the other way. Potencies of inconclusive entries are doubtful fits and often do not repeat.
# Assay: Primary qHTS for delayed death inhibitors of the malarial parasite plastid, 96 hour incubation
# Details: P. falciparum luciferase reporter growth; series mostly up to 28.7 µM; activity change, negative = inhibition: at the top concentration
# Method in brief: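 Infected RBCs, 2% Hct / 0.05% parasitemia final; luciferase-reporter P. falciparum; cpd 96 h, 37 C, 5% CO2; luciferase detection reagent; luminescence.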
# % is set by controls: 0 for no effect and ±100 for the full control effect; potency is the fitted concentration of half-maximal effect.
SMILES,"activity change, negative = inhibition",Potency
Cc1ccc(OCCC(=O)OCC(=O)Nc2cc(C)nn2-c2ccccc2)cc1,inactive: 1.22%,–
c1ccc(OCCSc2nc3ccccc3o2)cc1,–,"inconclusive: 2.62 µM [inhibitor, full curve, poor fit]"
COC(=O)c1ccc(Cl)c(NC(=O)CN(c2ccccc2)S(=O)(=O)c2ccc(OC)cc2)c1,–,"inconclusive: 14.7 µM [inhibitor, single point]"
COc1ccc(NC(=O)C2CCN(C(=O)c3ccco3)CC2)c(OC)c1,–,"inconclusive: 7.38 µM [inhibitor, single point]"
CC(C)c1ccc(NC(=O)c2cccc(NC3=NC4CS(=O)(=O)CC4S3)c2)cc1 (configuration not stated),–,"inconclusive: 13.1 µM [inhibitor, single point]"
Cn1cccc1Cc1nnc(SCC(=O)Nc2ccc3c(c2)OCO3)n1-c1ccc(F)cc1,–,"inconclusive: 10.4 µM [inhibitor, partial curve]"
COc1ccc(CCN(C)CC(O)COC(c2ccc(F)cc2)c2ccc(F)cc2)cc1OC (configuration not stated),–,active: 10.4 µM
O=C1c2ccccc2NC(c2cccs2)N1NS(=O)(=O)c1ccccc1 (configuration not stated),–,"inconclusive: 14.7 µM [inhibitor, partial curve, poor fit]"
COc1ccc(OC2CCN(S(=O)(=O)c3ccc(OC)cc3)CC2)cc1,–,"inconclusive: 2.62 µM [inhibitor, partial curve, poor fit]"
Clc1ccc(Oc2nc3c(Cl)cccc3s2)cc1Cl,inactive: 45.1%,–
CC[C@H](C)C(C(=O)N1CCN(C(=O)OC(C)(C)C)CC1)n1cc(C(CO)NC(=O)OC(C)(C)C)nn1 (some centres not stated),–,"inconclusive: 20.8 µM [inhibitor, partial curve, poor fit]"
Cc1cc(-c2ccccc2)nc(N(C)NC(=O)c2ccc(Cl)cc2)c1S(C)(=O)=O,–,"inconclusive: 3.29 µM [inhibitor, partial curve, poor fit]"
Cc1ccc(CNC(=O)c2ccc(Cn3nc(C)cc3C)o2)cc1,–,"inconclusive: 14.7 µM [inhibitor, single point]"
Cc1ccc(OCC(=O)c2cc(C)n(C3CC3)c2C)c([N+](=O)[O-])n1,–,"inconclusive: 18.5 µM [inhibitor, single point]"
Cc1ccc(Nc2c([N+](=O)[O-])c(=O)oc3ccccc23)cc1,–,"inconclusive: 4.15 µM [inhibitor, single point]"
CN1/C(=C\C=C2/SC(=S)NC2=O)C(C)(C)c2ccccc21,–,"inconclusive: 9.28 µM [inhibitor, single point]"
Cc1ccc(-c2noc(CSc3nc(N)cc(N)n3)n2)cc1,inactive: -24.3%,–
Cc1noc(C)c1C(=O)OCC(=O)Nc1cc(Cl)ccc1Oc1ccccc1,–,"inconclusive: 16.5 µM [inhibitor, single point]"
C=C(C)CN(CC)C(=O)CSc1ccc(S(=O)(=O)N2CCN(C)CC2)cn1,–,"inconclusive: 9.28 µM [inhibitor, partial curve]"
COc1cccc(/C=C/C(=O)OCC(=O)c2ccc3c(c2)NC(=O)CO3)c1,–,"inconclusive: 13.1 µM [inhibitor, single point]"
COc1ccc(C(CC(=O)O)NC(=O)c2ccccc2[N+](=O)[O-])cc1 (configuration not stated),inactive: 2.88%,–
CCn1cc(C(=O)O)c(=O)c2cc(F)c(N3CCNCC3)nc21,–,active: 1.44 µM
O=C(Cc1ccccc1)N/N=C/c1ccc(OCC(=O)Nc2ccccc2)cc1,–,"inconclusive: 18.5 µM [inhibitor, partial curve, poor fit]"

# Record cards, from the list above.
# `Cc1noc(C)c1C(=O)OCC(=O)Nc1cc(Cl)ccc1Oc1ccccc1` is entered as Potency: inconclusive: 16.5 µM [inhibitor, single point]
# `O=C(Cc1ccccc1)N/N=C/c1ccc(OCC(=O)Nc2ccccc2)cc1` is entered as Potency: inconclusive: 18.5 µM [inhibitor, partial curve, poor fit]
# `Cc1ccc(Nc2c([N+](=O)[O-])c(=O)oc3ccccc23)cc1` is entered as Potency: inconclusive: 4.15 µM [inhibitor, single point]

# Going on with the list.

SMILES,"activity change, negative = inhibition",Potency
COC(=O)C(NC(=O)COc1ccccc1)(Nc1nc2c(s1)CCCC2)C(F)(F)F (configuration not stated),–,active: 10.4 µM
CC(C)c1nc(SCC(=O)Nc2cccc(C(F)(F)F)c2)c2c(=O)n(C)c(=O)n(C)c2n1,–,"inconclusive: 11.7 µM [inhibitor, single point]"
Cn1c(=O)c2c(nc(N/N=C/c3ccncc3)n2Cc2ccccc2)n(C)c1=O,–,"inconclusive: 1.31 µM [inhibitor, partial curve]"
COCCCNc1nnc(Cc2ccc(Cl)cc2)c(=O)[nH]1,–,"inconclusive: 18.5 µM [inhibitor, single point]"
NS(=O)(=O)c1ccc(CCNS(=O)(=O)c2cccc3nsnc23)cc1,–,"inconclusive: 10.4 µM [inhibitor, single point]"
CCOc1ccc(CNS(=O)(=O)c2cccs2)cc1OCC,–,"inconclusive: 16.5 µM [inhibitor, single point]"
Cc1ccsc1/C=N/Nc1ccc(F)cc1F,–,"inconclusive: 11.7 µM [inhibitor, single point]"
CN(c1ccccc1)S(=O)(=O)c1cccc(NC(=O)c2ccc3ncsc3c2)c1,–,active: 10.4 µM
CCc1noc(N)c1C(=O)Nc1ccc(Cl)cc1,inactive: 5.23%,–
CC(C)Oc1ccc(-c2cc(=O)[nH]c(=O)[nH]2)cc1,–,"inconclusive: 5.86 µM [inhibitor, partial curve]"
O=C(COc1ccccc1C(=O)NCc1ccncc1)Nc1ccc(Br)cc1,–,"inconclusive: 9.28 µM [inhibitor, partial curve, poor fit]"
CCOc1ccc(NC(=O)N(CCC(C)C)C2CCN(C(C)=O)CC2)cc1,–,"inconclusive: 0.147 µM [inhibitor, full curve, poor fit]"
N#Cc1cc(C#N)c(SCC(=O)N2CC(=O)Nc3ccccc32)nc1N,–,"inconclusive: 16.5 µM [inhibitor, single point]"
COc1ccccc1NS(=O)(=O)c1cc(NC(=O)c2sccc2C)ccc1N1CCOCC1,–,active: 11.7 µM
Cc1ccnc(NC(=O)c2ccccc2NC(=O)c2ccccc2)c1,–,"inconclusive: 20.8 µM [inhibitor, single point]"
O=C(CN(Cc1ccccc1)C1=NCCS1)c1ccccc1,inactive: 26%,–
COc1cc2c(c(OC)c1OC)-c1ccc(OC)c(=O)cc1[C@@H](N(C)CC#CCO)CC2,inactive: 5.87%,–
Cc1ccc(S(=O)(=O)N2CCN(C(=O)CSc3cc(C)ccc3C)CC2)c(C)c1,–,"inconclusive: 18.5 µM [inhibitor, single point]"
COc1cc2c(cc1OC)CN(C(=O)c1ccc([N+](=O)[O-])o1)CC2,–,active: 4.15 µM
CCc1ccc(C(=O)N/N=C(\C)c2ccncc2)s1,–,"inconclusive: 16.5 µM [inhibitor, single point]"
O=C(CN1CCN(c2ccccn2)CC1)Nc1ccccc1F,–,"inconclusive: 18.5 µM [inhibitor, single point]"
CC(C)(C)c1ccc(C(=O)NNC(=O)Cc2cccc3ccccc23)cc1,–,"inconclusive: 13.1 µM [inhibitor, single point]"
CCC(CC)c1nnc(NC(=O)/C=C/c2ccco2)s1,inactive: -13.8%,–

SMILES,"activity change, negative = inhibition",Potency
COc1ccc(CN2CCN(C(=O)Cn3ncn4cccc4c3=O)CC2)c(OC)c1OC,–,"inconclusive: 18.5 µM [inhibitor, single point]"
COc1ccc2[nH]c(C(=O)O)c(NC(=O)c3cc(OC)c(OC)c(OC)c3)c2c1,inactive: 0.448%,–
NC(=O)c1ccc(=O)n(Cc2ccc(F)c(F)c2)c1,inactive: 53.2%,–
Cc1ccc(C)c(S(=O)(=O)N2CCCOC2CNC(=O)C(=O)NCCc2ccco2)c1 (configuration not stated),–,active: 13.1 µM
COc1cccc(CNC(=O)C2CCN(S(=O)(=O)N3CCCC3)CC2)c1,inactive: 33.2%,–
CN(C)/N=C/C=C1\CCC/C(=C\c2ccc(F)c(F)c2)C1=O,–,"inconclusive: 0.117 µM [inhibitor, full curve, poor fit]"
CCN(CC)C(=O)c1sc2nc(-c3cccs3)cc(-c3cccs3)c2c1N,–,"inconclusive: 2.62 µM [inhibitor, full curve, poor fit]"
CN1C/C(=C/c2ccsc2)C(=O)/C(=C/c2ccsc2)C1,–,"inconclusive: 18.5 µM [inhibitor, single point]"
O=C(Nc1cc(Cl)cc(Cl)c1)N1CCCC1,–,"inconclusive: 11.7 µM [inhibitor, single point]"
CCc1ccc(NC(=O)c2c(Cl)nc(C)c(Cl)c2C)cc1,–,"inconclusive: 18.5 µM [inhibitor, single point]"
O=C(NCC(c1ccco1)N1CCCCC1)c1ccc(NS(=O)(=O)c2ccc(F)cc2)cc1 (configuration not stated),–,"inconclusive: 18.5 µM [inhibitor, single point]"
COc1ccc(-n2nc(C)cc2N)cc1,inactive: -56.6%,–
CC(C)CNC(=S)N(CCO)Cc1cc2cc3c(cc2[nH]c1=O)OCO3,–,"inconclusive: 11.7 µM [inhibitor, single point]"
C=CCSc1nnc(CCc2ccccc2)n1N,–,"inconclusive: 2.94 µM [inhibitor, partial curve, poor fit]"
CCN(CC)S(=O)(=O)c1ccc(N2CCCC2)c(NC(=O)c2c(-c3ccccc3)noc2C)c1,–,"inconclusive: 5.22 µM [inhibitor, partial curve, poor fit]"
CCCc1c(C)nc(N2CCN(c3ccccc3F)CC2)[nH]c1=O,–,"inconclusive: 14.7 µM [inhibitor, single point]"
N#CC1=C(N)C(C#N)(C#N)C(c2ccc[nH]2)C2CCCC=C12 (configuration not stated),–,"inconclusive: 9.28 µM [inhibitor, single point]"
Cc1ccc(-n2c(O)c(/C=N/NC(=O)C3COc4ccccc4O3)c3ccccc3c2=O)cc1 (configuration not stated),inactive: 21.7%,–
CCc1nnc(NC(=O)c2ccc(Br)c(S(=O)(=O)N3CCOCC3)c2)s1,inactive: 2.77%,–
CC1(C)Cc2c(sc(NC(=O)COc3cccc4ccccc34)c2C#N)C(C)(C)N1,–,"inconclusive: 18.5 µM [inhibitor, single point]"
C/C=C/C(=O)Nc1cccc(C2=NOC3(C2)C[C@H](C(N)=O)N(C(=O)c2ccccc2C(=O)c2ccccc2)C3)c1 (some centres not stated),–,active: 11.7 µM

# Of the compounds above, 2 contain bromine:
SMILES,"activity change, negative = inhibition",Potency
O=C(COc1ccccc1C(=O)NCc1ccncc1)Nc1ccc(Br)cc1,–,"inconclusive: 9.28 µM [inhibitor, partial curve, poor fit]"
CCc1nnc(NC(=O)c2ccc(Br)c(S(=O)(=O)N3CCOCC3)c2)s1,inactive: 2.77%,–
